Data on three substances can be found in paper PMC13434705.

Sequences of proteins named here, by UniProt entry; tags and fusion partners are left off. A change or cut given only in a name is not applied to a line headed by its entry.
UniProt P09874: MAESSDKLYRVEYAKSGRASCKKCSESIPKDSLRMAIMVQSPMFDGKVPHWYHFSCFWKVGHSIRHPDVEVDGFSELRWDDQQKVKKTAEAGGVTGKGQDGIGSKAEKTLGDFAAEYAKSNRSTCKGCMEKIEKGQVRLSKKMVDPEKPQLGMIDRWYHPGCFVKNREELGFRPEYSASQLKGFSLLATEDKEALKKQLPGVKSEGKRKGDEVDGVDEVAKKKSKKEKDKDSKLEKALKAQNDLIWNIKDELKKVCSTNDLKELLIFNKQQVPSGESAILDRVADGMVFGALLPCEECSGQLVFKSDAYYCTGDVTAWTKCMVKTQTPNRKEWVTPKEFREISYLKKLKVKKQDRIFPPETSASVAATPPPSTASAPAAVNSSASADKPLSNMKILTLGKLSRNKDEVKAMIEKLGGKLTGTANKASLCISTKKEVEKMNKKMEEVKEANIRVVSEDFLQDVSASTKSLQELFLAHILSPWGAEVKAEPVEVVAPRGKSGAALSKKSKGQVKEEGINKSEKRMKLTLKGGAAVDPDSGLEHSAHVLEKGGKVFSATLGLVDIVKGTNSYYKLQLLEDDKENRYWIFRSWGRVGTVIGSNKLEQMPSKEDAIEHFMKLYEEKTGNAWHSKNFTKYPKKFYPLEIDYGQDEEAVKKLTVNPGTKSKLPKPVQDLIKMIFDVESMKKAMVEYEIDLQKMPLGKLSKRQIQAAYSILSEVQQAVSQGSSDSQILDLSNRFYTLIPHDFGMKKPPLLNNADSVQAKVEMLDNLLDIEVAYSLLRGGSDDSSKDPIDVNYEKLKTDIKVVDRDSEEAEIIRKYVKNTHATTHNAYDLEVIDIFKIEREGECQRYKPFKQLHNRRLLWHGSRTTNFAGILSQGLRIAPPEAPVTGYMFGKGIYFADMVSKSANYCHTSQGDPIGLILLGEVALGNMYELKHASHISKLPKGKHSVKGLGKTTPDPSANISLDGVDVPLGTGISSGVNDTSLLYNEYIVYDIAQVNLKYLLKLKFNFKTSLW
UniProt P19474: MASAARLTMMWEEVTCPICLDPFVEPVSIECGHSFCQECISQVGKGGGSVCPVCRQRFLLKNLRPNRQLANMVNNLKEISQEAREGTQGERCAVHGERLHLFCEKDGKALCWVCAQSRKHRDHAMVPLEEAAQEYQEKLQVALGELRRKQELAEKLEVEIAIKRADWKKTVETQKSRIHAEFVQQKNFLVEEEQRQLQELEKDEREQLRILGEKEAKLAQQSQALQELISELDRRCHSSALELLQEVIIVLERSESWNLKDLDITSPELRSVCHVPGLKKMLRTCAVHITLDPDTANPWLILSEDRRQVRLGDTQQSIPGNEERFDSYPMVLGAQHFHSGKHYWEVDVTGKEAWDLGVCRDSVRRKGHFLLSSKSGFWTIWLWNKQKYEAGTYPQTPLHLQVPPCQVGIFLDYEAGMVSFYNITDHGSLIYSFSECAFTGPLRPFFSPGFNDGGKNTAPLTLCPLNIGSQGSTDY

Assay [1] addresses Flag-PARP1 (pCMV-PARP1-3x Flag-WT) (human) (UniProt P09874). The assay can be described thus: co-IP; Supplementary Fig. 1e; PARP1 ΔH3ID and K654R tested for binding to TRIM21; legend not shown.
In assay [2] the target is Flag-PARP1 K654R (pCMV-PARP1 K654R) (human) (UniProt P09874). The assay is described as above.
The target in assay [3] is Flag-PARP1 (pCMV-PARP1-3x Flag-WT) (human) (UniProt P09874). Nature of the assay: co-IP; Flag-PARP1 and EGFP-TRIM21 transfected into DMS273, SHP77 and HEK293T cells; precipitation with an anti-Flag antibody.
The target of assay [4] is EGFP-TRIM21 (pcDNA3.1-EGFP-TRIM21, wild type) (human) (UniProt P19474). The assay can be described thus: co-IP; full-length and truncated EGFP-TRIM21 transfected into HEK293T cells, 48 h, EGFP-trap, immunoblot for PARP1.
For assay [5], the target named is Poly(ADP-ribose) polymerase 1 (PARP1), endogenous (human (endogenous in DMS273, SHP77, HEK293T)) (UniProt P09874). Nature of the assay: proximity ligation; Duolink in situ PLA with antibodies against PARP1 and TRIM21 in fixed DMS273 and SHP77 cells.
Assay [6] shares this target. The assay can be described thus: co-IP; endogenous proteins in DMS273, SHP77 and HEK293T lysates; lysis buffer 20 mM Tris-HCl pH 7.5, 150 mM NaCl, 1% Triton X-100, 1 mM EDTA; protein A/G magnetic beads.

These are yes or no findings as the source states them, for the method shown. Binding seen in cells or lysates may run through a third protein. Some binding calls cover weakened binding; strength is not graded here.

As to “EGFP-TRIM21 (pcDNA3.1-EGFP-TRIM21, wild type) (from UniProt P19474 1-475)”, the binding entry in assay [1], in assay [2] and in assay [3] was “binds” in each case.
Take “Poly(ADP-ribose) polymerase 1 (PARP1), endogenous (from UniProt P09874 1-1014)”: the binding result in assay [4] is reported as “binds”.
Take “tripartite motif-containing 21 (TRIM21), endogenous (from UniProt P19474 1-475)”: the binding result in assay [5] and in assay [6] was “binds” in each case.
